No constants are given. Whether binding was seen depends on the method and setting. In cells and extracts the contact can be indirect. Here binding means that the protein was enriched with, or labelled near, the bait; the list need not be complete. Where a sequence is shown, tags or fusion partners need not be part of it.
Molecular target: T1, recombinant MecA (rMecA), His-tagged (Streptococcus mutans) (UniProt Q8DW33)
T1 sequence: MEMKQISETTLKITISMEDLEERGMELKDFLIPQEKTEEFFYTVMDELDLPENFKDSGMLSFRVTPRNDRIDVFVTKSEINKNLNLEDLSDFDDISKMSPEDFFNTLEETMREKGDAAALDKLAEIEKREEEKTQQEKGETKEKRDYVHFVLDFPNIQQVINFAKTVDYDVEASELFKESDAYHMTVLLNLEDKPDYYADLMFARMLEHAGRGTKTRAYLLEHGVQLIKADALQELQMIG
Experiment: affinity purification with mass spectrometry; His-tagged rMecA (bait) immobilised on Ni-NTA resin, incubated with S. mutans cell lysate in KMNP buffer (2 mM MgCl2, 50 mM NaCl, 50 mM K2HPO4/KH2PO4, PMSF) overnight at 4°C; column washed, eluted under native conditions; SDS-PAGE, LC/MS; only the target purified

Protein sequences, listed by entry. Tags and fused reporters are not part of them.
UniProt Q8DVD0: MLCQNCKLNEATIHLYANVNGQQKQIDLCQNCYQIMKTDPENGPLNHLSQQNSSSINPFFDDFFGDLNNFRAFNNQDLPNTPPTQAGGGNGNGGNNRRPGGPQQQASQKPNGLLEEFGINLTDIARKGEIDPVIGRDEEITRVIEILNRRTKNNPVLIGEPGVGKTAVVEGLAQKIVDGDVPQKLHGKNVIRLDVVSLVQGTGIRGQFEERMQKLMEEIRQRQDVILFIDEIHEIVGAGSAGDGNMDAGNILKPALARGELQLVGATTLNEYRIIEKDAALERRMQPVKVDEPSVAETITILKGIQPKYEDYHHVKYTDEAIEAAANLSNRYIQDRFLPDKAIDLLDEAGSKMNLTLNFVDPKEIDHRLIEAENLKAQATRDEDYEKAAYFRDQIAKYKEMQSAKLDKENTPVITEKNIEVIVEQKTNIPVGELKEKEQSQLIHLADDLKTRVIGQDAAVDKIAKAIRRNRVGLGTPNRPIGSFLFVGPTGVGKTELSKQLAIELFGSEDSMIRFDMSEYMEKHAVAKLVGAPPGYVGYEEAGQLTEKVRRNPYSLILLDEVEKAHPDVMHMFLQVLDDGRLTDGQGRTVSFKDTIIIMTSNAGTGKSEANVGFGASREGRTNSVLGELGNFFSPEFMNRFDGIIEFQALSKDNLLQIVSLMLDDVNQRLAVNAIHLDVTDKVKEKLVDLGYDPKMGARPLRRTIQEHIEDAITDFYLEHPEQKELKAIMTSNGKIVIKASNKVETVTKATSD
UniProt Q8DUI0: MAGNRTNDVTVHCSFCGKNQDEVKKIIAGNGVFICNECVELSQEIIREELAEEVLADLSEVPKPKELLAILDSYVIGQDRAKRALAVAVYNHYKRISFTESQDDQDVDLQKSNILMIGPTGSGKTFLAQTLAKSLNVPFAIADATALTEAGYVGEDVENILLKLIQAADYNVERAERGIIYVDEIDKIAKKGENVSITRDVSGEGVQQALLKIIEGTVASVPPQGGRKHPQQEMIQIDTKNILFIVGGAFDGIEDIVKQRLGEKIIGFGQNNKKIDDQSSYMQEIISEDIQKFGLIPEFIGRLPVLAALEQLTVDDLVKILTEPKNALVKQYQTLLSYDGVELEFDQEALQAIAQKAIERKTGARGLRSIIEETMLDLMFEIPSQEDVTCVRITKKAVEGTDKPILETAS
UniProt O07329: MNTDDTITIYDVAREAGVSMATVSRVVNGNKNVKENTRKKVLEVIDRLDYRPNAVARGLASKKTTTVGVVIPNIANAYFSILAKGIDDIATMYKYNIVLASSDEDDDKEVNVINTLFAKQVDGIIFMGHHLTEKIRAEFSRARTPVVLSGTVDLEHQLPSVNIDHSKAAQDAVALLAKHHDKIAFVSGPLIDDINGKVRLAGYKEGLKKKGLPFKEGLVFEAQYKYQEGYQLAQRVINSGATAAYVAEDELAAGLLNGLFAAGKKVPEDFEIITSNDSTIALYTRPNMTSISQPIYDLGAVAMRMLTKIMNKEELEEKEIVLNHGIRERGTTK

Substance	binding
ATPase ClpE (from UniProt Q8DVD0 1-753)	binds
ATPase ClpX (from UniProt Q8DUI0 1-410)	binds
carbon catabolite repressor protein CcpA (from UniProt O07329 1-333)	binds

Source: article PMC11656736
